These are yes or no findings as the source states them, for the method shown. Binding seen in cells or lysates may run through a third protein. Some entries that bind do so weakly or less than the wild type.
Biological target: HA-tagged wild-type MAVS (human) (UniProt Q7Z434)
Assay: co-IP

Protein sequences, listed by entry. Tags and fused reporters are not part of them. Residues count along the entry.
UniProt Q7Z434, whole entry: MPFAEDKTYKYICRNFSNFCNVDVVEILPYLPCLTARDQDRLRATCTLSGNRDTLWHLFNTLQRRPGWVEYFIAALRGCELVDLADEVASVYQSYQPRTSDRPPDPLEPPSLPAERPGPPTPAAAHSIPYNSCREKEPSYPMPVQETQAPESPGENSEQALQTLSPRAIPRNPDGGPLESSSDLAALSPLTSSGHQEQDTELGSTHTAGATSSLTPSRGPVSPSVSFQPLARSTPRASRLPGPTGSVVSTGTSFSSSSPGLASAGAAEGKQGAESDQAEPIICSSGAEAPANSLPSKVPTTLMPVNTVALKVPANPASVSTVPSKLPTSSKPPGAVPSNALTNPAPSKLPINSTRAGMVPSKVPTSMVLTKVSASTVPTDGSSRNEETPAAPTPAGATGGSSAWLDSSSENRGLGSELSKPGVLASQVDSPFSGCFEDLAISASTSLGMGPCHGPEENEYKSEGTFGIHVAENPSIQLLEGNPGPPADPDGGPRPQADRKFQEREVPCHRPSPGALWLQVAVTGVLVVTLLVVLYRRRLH
UniProt P03496, 1-73: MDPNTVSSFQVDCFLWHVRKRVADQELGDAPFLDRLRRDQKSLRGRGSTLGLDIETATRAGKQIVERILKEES

truncated NS1 N ([change]–230) (from UniProt P03496 1-73) (domain or fragment)
binding: binds
